# Data from PubChem BioAssay AID624297 (National Center for Advancing Translational Sciences (NCATS), 2012).
# Hit rate of the full screen: of about 340,000 compounds, about 6,200 (1.8%) were called active. The inconclusive results got no clear call from the source; some entries with a clear call stand among them for comparison. The call rests on the fitted dose curve; in most records, active means well fitted activation curve with a large enough effect; inconclusive means small, poorly fitted or top-dose-only effect; inactive means no such curve, though single readings can be large or run the other way. A potency beside an inconclusive call is a rough fit, not a confirmed value.
# Assay: A quantitative high throughput screen for small molecules that induce DNA re-replication in SW480 colon adenocarcinoma cells. Further: nearly all actives have a fitted effect of over 55% in size. On re-replication activation: % of control where 0% means no effect.
# Details: Hoechst DNA content imaging, 48 h; re-replication activation: at 46.1 µM (top of the series) unless noted
# In short: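 Cells (250 per well) received 23 nL compound or DMSO by pin tool and were kept 48 hr at 37 C, 5% CO2. Nuclei were then stained with Hoechst for 40 min and scanned for DNA content.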
# Potency means the concentration at half of the fitted maximal effect.
SMILES,re-replication activation,Potency
CC(NC(=O)C1CCN(C(=O)c2cccs2)CC1)c1ccc(S(N)(=O)=O)cc1 (centres undefined),inactive: -17.1%,–
CC(C)CC(=O)Nc1ccc(C(=O)COc2ccc(-c3nnco3)cc2)cc1,–,"inconclusive: 29.1 µM [activator, partial curve, poor fit]"
OCCNCCNCc1ccccc1OCc1ccccc1,–,active: 20.6 µM
COC(=O)C1=C(N)Oc2cc(C)[nH]c(=O)c2C1c1ccccc1OC (centres undefined),–,"inconclusive: 6.51 µM [activator, partial curve, poor fit]"
COc1ccc(C(=O)Oc2ccc(Br)cc2C(=S)N2CCOCC2)cc1,–,"inconclusive: 6.31 µM [activator, partial curve, poor fit]"
Cc1cc(C)nc(NC(=NCCc2c[nH]c3ccccc23)NC(=O)Nc2cccc([N+](=O)[O-])c2)n1,–,"inconclusive: 18.4 µM [activator, single point]"
CN(Cc1ccccc1NCC(=O)Nc1ccccc1C#N)C1CCCCC1,inactive: 3.43% [at 1.84 µM],–
CCc1ccc(CNCc2ccc(OCC(O)CN(C)Cc3ccccc3)cc2)nc1 (centres undefined),–,"inconclusive: 29.1 µM [activator, single point]"
COc1ccc(NC(=O)COn2nnc3ccc(Cl)cc32)cc1OC,–,"inconclusive: 29.1 µM [activator, single point]"
CSC[C@@H]1NC(=S)N(c2ccc(C)cc2)C1=O,inactive: 11.7%,–
O=S(=O)(NCc1ccc(Cl)cc1Cl)c1cccs1,inactive: 0.858%,–
O=C(N/N=C/c1cc(Cl)cc([N+](=O)[O-])c1O)c1cc(-c2ccccn2)nc2ccccc12,–,"inconclusive: 2.59 µM [activator, full curve]"
CC(C)(C)C1=CC(O)(c2ccccc2)C=C(C(C)(C)C)C1=O,inactive: -0.532%,–
NC(=S)N=Nc1c(O)[nH]c2c(Cl)cc(Cl)cc12,–,"inconclusive: 29.1 µM [activator, single point]"
COc1cccc(C(=O)Oc2ccccc2/C=C\C(=O)c2cc3ccccc3o2)c1,–,"inconclusive: 18.4 µM [activator, single point]"
CCSC1=NSC2=NC(=O)/C(=C\c3coc4ccccc4c3=O)C(=N)N12,–,"inconclusive: 0.0326 µM [activator, full curve, poor fit]"
O=C(c1cc(C2CC2)nc2ccc(Br)cc12)N1N=C(C(F)F)CC1(O)C(F)F (centres undefined),–,"inconclusive: 20.6 µM [activator, single point]"
COC(=O)c1sc2nc(CN3CCN(c4ccc(OC)cc4)CC3)[nH]c(=O)c2c1C,–,"inconclusive: 6.51 µM [activator, partial curve, poor fit]"
COCCn1c(=NC(=O)c2ccc(S(=O)(=O)N3CCc4ccccc4C3)cc2)sc2cc(OC)ccc21,inactive: -4.32%,–
Cc1ccccc1NC(=O)CSc1n[nH]c(-c2ccccn2)n1,–,"inconclusive: 29.1 µM [activator, single point]"
CC(C)(C)c1ccccc1NC(=O)c1ccc(-n2cncn2)c([N+](=O)[O-])c1,inactive: 13%,–
Cc1cc(C)cc(NC(=O)CN(c2ccc(F)cc2)S(C)(=O)=O)c1,–,"inconclusive: 29.1 µM [activator, single point]"
CN(C)CCCNc1cc(O)c2ncccc2c1,–,"inconclusive: 0.146 µM [activator, full curve, poor fit]"

SMILES,re-replication activation,Potency
CSc1cccc(NS(=O)(=O)c2ccc(C(C)=O)cc2)c1,–,"inconclusive: 29.1 µM [activator, single point]"
C=CCn1c(SCC(=O)Nc2sccc2C(N)=O)nc2ccccc2c1=O,–,"inconclusive: 18.4 µM [activator, single point]"
Cc1ccc(OCCC(=O)OCC(=O)N2CCN(S(=O)(=O)c3ccc(Cl)cc3)CC2)cc1,–,active: 18.4 µM
O=C(Nc1ccccn1)c1cc(-c2cccc(Cl)c2)nc2ccccc12,–,"inconclusive: 29.1 µM [activator, partial curve, poor fit]"
CC(C)(C)c1ccc(OCC(=O)N2CCN(c3ccccn3)CC2)cc1,–,"inconclusive: 6.51 µM [activator, single point]"
Cc1noc(C)c1S(=O)(=O)N(C)C[C@H]1Oc2ccc(NC(=O)NC(C)C)cc2C(=O)N([C@H](C)CO)C[C@@H]1C,inactive: -12%,–
O=C1CN(S(=O)(=O)c2ccc(Cl)cc2)CC(=O)N1CCc1ccccc1,inactive: -1.62%,–
CCCCNC(=O)C1CCN(Cc2ccc(OCc3ccccc3)cc2)CC1,–,"inconclusive: 16.4 µM [activator, single point]"
CC(C)CN1C(=O)NC2(CCCc3ccccc32)C1=O (centres undefined),inactive: 12.2%,–
CCCCn1c(O)c(N=Nc2ccccc2O)c2ccccc21,–,"inconclusive: 29.1 µM [activator, single point]"
Cc1ccc(-c2csc(=S)n2CC(=O)OCC(=O)NCc2ccco2)cc1,inactive: -1.12%,–
CCOC(=O)CSC1=C(C#N)C(c2ccc(C)s2)CC(=O)N1 (centres undefined),inactive: 4.71%,–
CC(=O)c1cc(C#N)c(Oc2cc(C)cc(C)c2)nc1C,–,"inconclusive: 20.6 µM [activator, single point]"
COc1cccc(C2Cc3ccccc3C(=O)O2)c1 (centres undefined),–,"inconclusive: 0.0411 µM [activator, full curve, poor fit]"
O=C(OC(c1ccccc1)c1nccc2ccccc12)c1ccccc1 (centres undefined),–,"inconclusive: 16.4 µM [activator, partial curve, poor fit]"
Cc1cccc(N(CC(=O)N=Nc2c(O)[nH]c3ccccc23)S(C)(=O)=O)c1C,inactive: -0.526%,–
Cc1noc(C)c1COc1ccccc1C(=O)NC(C)c1ccc(Cl)cc1 (centres undefined),inactive: -4.11%,–
CCN1CCN(c2ccc(S(=O)(=O)N3CCCCC3)cc2NC(=O)Cc2ccc(Cl)c(Cl)c2)CC1,–,"inconclusive: 25.9 µM [activator, single point]"
Cc1nn(Cc2ccc(Cl)cc2)c(C)c1NC(=O)c1ccc([N+](=O)[O-])cc1,inactive: 2.45%,–
COc1ccccc1-c1nnc(C2CCN(S(=O)(=O)c3ccccc3[N+](=O)[O-])CC2)o1,inactive: 12.5%,–
C=C(C)COc1ccc(-c2ncncc2-c2ccccc2)c(O)c1,–,"inconclusive: 20.6 µM [activator, single point]"
CC(=O)N/C(=C/c1ccccc1)c1ccccc1,–,"inconclusive: 29.1 µM [activator, single point]"
N#Cc1ccc(-c2cccs2)nc1SCc1cccnc1,–,active: 0.731 µM

SMILES,re-replication activation,Potency
Cc1oc(-c2ccc(Cl)cc2)nc1CN1CCC(C(=O)NCCCN2CCCC(C)C2)CC1 (centres undefined),–,"inconclusive: 25.9 µM [activator, single point]"
CN(C(=O)c1ccc2c(c1)OCO2)C1CCS(=O)(=O)C1 (centres undefined),inactive: 1.34%,–
COc1ccc(-c2nnc(SCC(=O)c3ccc(C)o3)o2)cc1,inactive: -7.91%,–
Cc1ccc(-n2nnnc2SCC(=O)c2cc(C)n(-c3cc(C)on3)c2C)c(C)c1,–,"inconclusive: 20.6 µM [activator, partial curve, poor fit]"
CC(C)NS(=O)(=O)c1ccc(NC(=O)C(C)OC(=O)CCC2CCCCC2)cc1 (centres undefined),–,"inconclusive: 29.1 µM [activator, single point]"
COc1ccc(N(C)S(=O)(=O)c2cccc(C(=O)NC3CCCC(C)C3C)c2)cc1 (centres undefined),–,"inconclusive: 16.4 µM [activator, single point]"
Cc1nn(-c2ccccc2)c2c1C(c1ccc(Cl)cc1)N(c1ccccc1)C(=O)N2 (centres undefined),–,"inconclusive: 6.51 µM [activator, single point]"
COc1ccc([N+](=O)[O-])cc1NC(=O)COC(=O)c1ccccc1O,–,"inconclusive: 29.1 µM [activator, single point]"
O=C(NNC(=O)c1cc([N+](=O)[O-])ccc1Cl)c1cccnc1,inactive: -12%,–
Cn1nnnc1Sc1ncnc2scc(-c3cccs3)c12,–,"inconclusive: 3.26 µM [activator, full curve]"
CCCC(=O)Nc1ccc2c(c1)c1ccccc1n2CC,–,"inconclusive: 25.9 µM [activator, single point]"
CCOc1ccc(/C=N/NC(=O)C(=O)NCc2ccco2)cc1,inactive: -5.88%,–
CCN(Cc1ccccc1)S(=O)(=O)c1ccc(C(=O)N(CCCN(C)C)c2nc3cc(OC)ccc3s2)cc1,–,"inconclusive: 6.51 µM [activator, partial curve, poor fit]"
COC(=O)n1c(=O)oc2ccc(S(=O)(=O)N3CCCCC3)cc21,–,"inconclusive: 29.1 µM [activator, single point]"
O=C(NCCCN1CCCCC1)c1ccc2c(=O)n(CCc3ccccc3)c(=O)[nH]c2c1,–,"inconclusive: 31.6 µM [activator, single point]"
NNC(=O)c1ccc(COc2cccc3ccccc23)cc1,inactive: -4.15%,–
Cc1nnc(NC(=O)CC(C)c2ccccc2)s1 (centres undefined),–,"inconclusive: 0.116 µM [activator, full curve, poor fit]"
c1ccc(CN2c3ccccc3-c3nc4ccccc4n3C2c2ccccn2)cc1 (centres undefined),inactive: -20.8%,–
Cc1ccc(N2CCN(C(=O)C3CCC(=O)N(Cc4ccc(Cl)cc4)C3)CC2)c(C)c1 (centres undefined),–,"inconclusive: 20.6 µM [activator, partial curve, poor fit]"
CC(C)COc1ccc(C(=O)Nc2ccccc2[N+](=O)[O-])cc1,–,"inconclusive: 0.731 µM [activator, full curve, poor fit]"
CC(=O)OCC(=O)C1(O)CCC2C3CCC4=CC(=O)CCC4(C)C3(F)C(O)CC21C (centres undefined),inactive: 0.078%,–
Cc1cccc(C)c1OCc1n[nH]c(=S)n1-c1ccccc1,inactive: 20%,–
C/C(N)=C(/C#N)C(=O)CSc1nc(-c2ccccc2)c(-c2ccccc2)o1,–,"inconclusive: 29.1 µM [activator, single point]"
